Source: US9284543B2, “Neutral active soluble truncated PH20 polypeptides and uses thereof” (Halozyme, Inc., priority 2008, dated 2016)

B1: SPAM1-FLII: C-terminally truncated human PH20, precursor 503 aa (SEQ ID NO:5), mature 468 aa (SEQ ID NO:57) (protein, listed as Homo sapiens)
chain 1: MGVLKFKHIFFRSFVKSSGVSQIVFTFLLIPCCLTLNFRAPPVIPNVPFLWAWNAPSEFCLGKFDEPLDMSLFSFIGSPRINATGQGVTIFYVDRLGYYPYIDSITGVTVNGGIPQKISLQDHLDKAKKDITFYMPVDNLGMAVIDWEEWRPTWARNWKPKDVYKNRSIELVQQQNVQLSLTEATEKAKQEFEKAGKDFLVETIKLGKLLRPNHLWGYYLFPDCYNHHYKKPGYNGSCFNVEIKRNDDLSWLWNESTALYPSIYLNTQQSPVAATLYVRNRVREAIRVSKIPDAKSPLPVFAYTRIVFTDQVLKFLSQDELVYTFGETVALGASGIVIWGTLSIMRSMKSCLLLDNYMETILNPYIINVTLAAKMCSQVLCQEQGVCIRKNWNSSDYLHLNPDNFAIQLEKGGKFTVRGKPTLEDLEQFSEKFYCSCYSTLSCKEKADVKDTDAVDVCIADGVCIDAFLKPPMETEEPQIFYNASPSTLSATMFIVSILFLII
chain 2: LNFRAPPVIPNVPFLWAWNAPSEFCLGKFDEPLDMSLFSFIGSPRINATGQGVTIFYVDRLGYYPYIDSITGVTVNGGIPQKISLQDHLDKAKKDITFYMPVDNLGMAVIDWEEWRPTWARNWKPKDVYKNRSIELVQQQNVQLSLTEATEKAKQEFEKAGKDFLVETIKLGKLLRPNHLWGYYLFPDCYNHHYKKPGYNGSCFNVEIKRNDDLSWLWNESTALYPSIYLNTQQSPVAATLYVRNRVREAIRVSKIPDAKSPLPVFAYTRIVFTDQVLKFLSQDELVYTFGETVALGASGIVIWGTLSIMRSMKSCLLLDNYMETILNPYIINVTLAAKMCSQVLCQEQGVCIRKNWNSSDYLHLNPDNFAIQLEKGGKFTVRGKPTLEDLEQFSEKFYCSCYSTLSCKEKADVKDTDAVDVCIADGVCIDAFLKPPMETEEPQIFYNASPSTLSATMFIVSILFLII
modifications: HuPH20 precursor 1-503; mature HuPH20 36-503
B2: SPAM1-TMFI: C-terminally truncated human PH20, precursor 495 aa (SEQ ID NO:9), mature 460 aa (SEQ ID NO:61) (protein, listed as Homo sapiens)
chain 1: MGVLKFKHIFFRSFVKSSGVSQIVFTFLLIPCCLTLNFRAPPVIPNVPFLWAWNAPSEFCLGKFDEPLDMSLFSFIGSPRINATGQGVTIFYVDRLGYYPYIDSITGVTVNGGIPQKISLQDHLDKAKKDITFYMPVDNLGMAVIDWEEWRPTWARNWKPKDVYKNRSIELVQQQNVQLSLTEATEKAKQEFEKAGKDFLVETIKLGKLLRPNHLWGYYLFPDCYNHHYKKPGYNGSCFNVEIKRNDDLSWLWNESTALYPSIYLNTQQSPVAATLYVRNRVREAIRVSKIPDAKSPLPVFAYTRIVFTDQVLKFLSQDELVYTFGETVALGASGIVIWGTLSIMRSMKSCLLLDNYMETILNPYIINVTLAAKMCSQVLCQEQGVCIRKNWNSSDYLHLNPDNFAIQLEKGGKFTVRGKPTLEDLEQFSEKFYCSCYSTLSCKEKADVKDTDAVDVCIADGVCIDAFLKPPMETEEPQIFYNASPSTLSATMFI
chain 2: LNFRAPPVIPNVPFLWAWNAPSEFCLGKFDEPLDMSLFSFIGSPRINATGQGVTIFYVDRLGYYPYIDSITGVTVNGGIPQKISLQDHLDKAKKDITFYMPVDNLGMAVIDWEEWRPTWARNWKPKDVYKNRSIELVQQQNVQLSLTEATEKAKQEFEKAGKDFLVETIKLGKLLRPNHLWGYYLFPDCYNHHYKKPGYNGSCFNVEIKRNDDLSWLWNESTALYPSIYLNTQQSPVAATLYVRNRVREAIRVSKIPDAKSPLPVFAYTRIVFTDQVLKFLSQDELVYTFGETVALGASGIVIWGTLSIMRSMKSCLLLDNYMETILNPYIINVTLAAKMCSQVLCQEQGVCIRKNWNSSDYLHLNPDNFAIQLEKGGKFTVRGKPTLEDLEQFSEKFYCSCYSTLSCKEKADVKDTDAVDVCIADGVCIDAFLKPPMETEEPQIFYNASPSTLSATMFI
modifications: HuPH20 precursor 1-495; esHuPH20 36-495
B3: SPAM1-LFLI: C-terminally truncated human PH20, precursor 502 aa (SEQ ID NO:47), mature 467 aa (SEQ ID NO:99) (protein, listed as Homo sapiens)
chain 1: MGVLKFKHIFFRSFVKSSGVSQIVFTFLLIPCCLTLNFRAPPVIPNVPFLWAWNAPSEFCLGKFDEPLDMSLFSFIGSPRINATGQGVTIFYVDRLGYYPYIDSITGVTVNGGIPQKISLQDHLDKAKKDITFYMPVDNLGMAVIDWEEWRPTWARNWKPKDVYKNRSIELVQQQNVQLSLTEATEKAKQEFEKAGKDFLVETIKLGKLLRPNHLWGYYLFPDCYNHHYKKPGYNGSCFNVEIKRNDDLSWLWNESTALYPSIYLNTQQSPVAATLYVRNRVREAIRVSKIPDAKSPLPVFAYTRIVFTDQVLKFLSQDELVYTFGETVALGASGIVIWGTLSIMRSMKSCLLLDNYMETILNPYIINVTLAAKMCSQVLCQEQGVCIRKNWNSSDYLHLNPDNFAIQLEKGGKFTVRGKPTLEDLEQFSEKFYCSCYSTLSCKEKADVKDTDAVDVCIADGVCIDAFLKPPMETEEPQIFYNASPSTLSATMFIVSILFLI
chain 2: LNFRAPPVIPNVPFLWAWNAPSEFCLGKFDEPLDMSLFSFIGSPRINATGQGVTIFYVDRLGYYPYIDSITGVTVNGGIPQKISLQDHLDKAKKDITFYMPVDNLGMAVIDWEEWRPTWARNWKPKDVYKNRSIELVQQQNVQLSLTEATEKAKQEFEKAGKDFLVETIKLGKLLRPNHLWGYYLFPDCYNHHYKKPGYNGSCFNVEIKRNDDLSWLWNESTALYPSIYLNTQQSPVAATLYVRNRVREAIRVSKIPDAKSPLPVFAYTRIVFTDQVLKFLSQDELVYTFGETVALGASGIVIWGTLSIMRSMKSCLLLDNYMETILNPYIINVTLAAKMCSQVLCQEQGVCIRKNWNSSDYLHLNPDNFAIQLEKGGKFTVRGKPTLEDLEQFSEKFYCSCYSTLSCKEKADVKDTDAVDVCIADGVCIDAFLKPPMETEEPQIFYNASPSTLSATMFIVSILFLI
modifications: HuPH20 precursor 1-502; Mature HuPH20 36-502
B4: SPAM1-FIVS: C-terminally truncated human PH20, precursor 497 aa (SEQ ID NO:8), mature 462 aa (SEQ ID NO:60) (protein, listed as Homo sapiens)
chain 1: MGVLKFKHIFFRSFVKSSGVSQIVFTFLLIPCCLTLNFRAPPVIPNVPFLWAWNAPSEFCLGKFDEPLDMSLFSFIGSPRINATGQGVTIFYVDRLGYYPYIDSITGVTVNGGIPQKISLQDHLDKAKKDITFYMPVDNLGMAVIDWEEWRPTWARNWKPKDVYKNRSIELVQQQNVQLSLTEATEKAKQEFEKAGKDFLVETIKLGKLLRPNHLWGYYLFPDCYNHHYKKPGYNGSCFNVEIKRNDDLSWLWNESTALYPSIYLNTQQSPVAATLYVRNRVREAIRVSKIPDAKSPLPVFAYTRIVFTDQVLKFLSQDELVYTFGETVALGASGIVIWGTLSIMRSMKSCLLLDNYMETILNPYIINVTLAAKMCSQVLCQEQGVCIRKNWNSSDYLHLNPDNFAIQLEKGGKFTVRGKPTLEDLEQFSEKFYCSCYSTLSCKEKADVKDTDAVDVCIADGVCIDAFLKPPMETEEPQIFYNASPSTLSATMFIVS
chain 2: LNFRAPPVIPNVPFLWAWNAPSEFCLGKFDEPLDMSLFSFIGSPRINATGQGVTIFYVDRLGYYPYIDSITGVTVNGGIPQKISLQDHLDKAKKDITFYMPVDNLGMAVIDWEEWRPTWARNWKPKDVYKNRSIELVQQQNVQLSLTEATEKAKQEFEKAGKDFLVETIKLGKLLRPNHLWGYYLFPDCYNHHYKKPGYNGSCFNVEIKRNDDLSWLWNESTALYPSIYLNTQQSPVAATLYVRNRVREAIRVSKIPDAKSPLPVFAYTRIVFTDQVLKFLSQDELVYTFGETVALGASGIVIWGTLSIMRSMKSCLLLDNYMETILNPYIINVTLAAKMCSQVLCQEQGVCIRKNWNSSDYLHLNPDNFAIQLEKGGKFTVRGKPTLEDLEQFSEKFYCSCYSTLSCKEKADVKDTDAVDVCIADGVCIDAFLKPPMETEEPQIFYNASPSTLSATMFIVS
modifications: HuPH20 precursor 1-497; esHuPH20 36-497
B5: SPAM1-SATM: C-terminally truncated human PH20, precursor 493 aa (SEQ ID NO:10), mature 458 aa (SEQ ID NO:62) (protein, listed as Homo sapiens)
chain 1: MGVLKFKHIFFRSFVKSSGVSQIVFTFLLIPCCLTLNFRAPPVIPNVPFLWAWNAPSEFCLGKFDEPLDMSLFSFIGSPRINATGQGVTIFYVDRLGYYPYIDSITGVTVNGGIPQKISLQDHLDKAKKDITFYMPVDNLGMAVIDWEEWRPTWARNWKPKDVYKNRSIELVQQQNVQLSLTEATEKAKQEFEKAGKDFLVETIKLGKLLRPNHLWGYYLFPDCYNHHYKKPGYNGSCFNVEIKRNDDLSWLWNESTALYPSIYLNTQQSPVAATLYVRNRVREAIRVSKIPDAKSPLPVFAYTRIVFTDQVLKFLSQDELVYTFGETVALGASGIVIWGTLSIMRSMKSCLLLDNYMETILNPYIINVTLAAKMCSQVLCQEQGVCIRKNWNSSDYLHLNPDNFAIQLEKGGKFTVRGKPTLEDLEQFSEKFYCSCYSTLSCKEKADVKDTDAVDVCIADGVCIDAFLKPPMETEEPQIFYNASPSTLSATM
chain 2: LNFRAPPVIPNVPFLWAWNAPSEFCLGKFDEPLDMSLFSFIGSPRINATGQGVTIFYVDRLGYYPYIDSITGVTVNGGIPQKISLQDHLDKAKKDITFYMPVDNLGMAVIDWEEWRPTWARNWKPKDVYKNRSIELVQQQNVQLSLTEATEKAKQEFEKAGKDFLVETIKLGKLLRPNHLWGYYLFPDCYNHHYKKPGYNGSCFNVEIKRNDDLSWLWNESTALYPSIYLNTQQSPVAATLYVRNRVREAIRVSKIPDAKSPLPVFAYTRIVFTDQVLKFLSQDELVYTFGETVALGASGIVIWGTLSIMRSMKSCLLLDNYMETILNPYIINVTLAAKMCSQVLCQEQGVCIRKNWNSSDYLHLNPDNFAIQLEKGGKFTVRGKPTLEDLEQFSEKFYCSCYSTLSCKEKADVKDTDAVDVCIADGVCIDAFLKPPMETEEPQIFYNASPSTLSATM
modifications: HuPH20 precursor 1-493; esHuPH20 36-493

The molecules below were run on CHO-S cells (assay: Western blot analysis of PH20 expression in media and cells after transient expression). Details: band at approximately 66 kDa.
Assay type: cell-based, Chinese Hamster
Summary of the method: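 PH20 expression and solubility were judged by anti-PH20 Western blot of non-reduced media and cell fractions, with expression shown by a ~66 kDa band. Samples came from CHO-S cells transiently transfected (GeneJuice) with mutant PH20-HZ24 DNA and cultured 48-72 h. GPI-anchored mutants were cleaved with PI-PLC to release soluble protein.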

Protein Expression, YES:
B1, B2, B3, B4, B5
